Laboratory results taken from patent publication US20110143366A1, “PROTEIN BIOMARKERS FOR IN VITRO TESTING OF DEVELOPMENTAL TOXICITY AND ENBRYOTOXICITY OF CHEMICAL SUBSTANCES” (PROTEOSYS AG, priority 2008, published 2011).

Test system: neurally differentiated human embryonic stem cell
Test: Differential proteomic analysis of lysates from neurally differentiated human embryonic stem cells
Format: cell-based
Details: hESC cultures treated with methyl mercury and valproic acid; one count for both treatments

`CCCC(CCC)C(=O)O` [valproic acid] was tested, and the “Number of protein spots differentially affected by the treatment” value was 177.
For `[CH3][Hg][Cl]` [methyl mercury], the “Number of protein spots differentially affected by the treatment” value was 177.
